Laboratory results reported in patent US20140023653A1, “BOLDINE DERIVATIVES FOR PROMOTING BONE GROWTH” (OSTEOGENEX, INC., priority 2012, published 2014).
Some of these results come from one statement about several compounds together.

Molecular target: T1, Sclerostin (Homo sapiens, UniProt Q9BQB4)
T1 construct: host or cells: human embryonic cells (reporter cells)
T1 sequence (Q9BQB4 24-213): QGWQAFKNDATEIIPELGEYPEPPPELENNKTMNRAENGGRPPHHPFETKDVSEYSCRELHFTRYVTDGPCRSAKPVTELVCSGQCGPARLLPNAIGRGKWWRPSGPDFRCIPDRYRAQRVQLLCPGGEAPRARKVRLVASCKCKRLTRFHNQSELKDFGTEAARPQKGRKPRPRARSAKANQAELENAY
Test: Luciferase Wnt pathway activity assay: inhibition of sclerostin by restoration of Wnt signaling in human cells
Format: cell-based
Details: human embryonic cells, varying μM concentrations of compound
Description: The Y axis represents Relative Light Units (RLU) which represents Wnt pathway signaling. Addition of Wnt (W) activates the Wnt pathway, while addition of Sclerostin (S) inhibits the Wnt pathway. […] Compound concentrations are indicated in μM.
Briefly, cells (e.g., human cells) are treated with a predetermined dose of a candidate compound for a complete dosing schedule.
Concentrations are indicated along the X axis in micromolar values.

SMILES | Inhibition of sclerostin / recovery of Wnt signal (FIG. 1)
COc1cc2c(cc1O)C[C@H]1c3c(cc(O)c(OC)c3-2)CCN1C [Compound 1, (S)-1,10-dimethoxy-6-methyl-5,6,6a,7-tetrahydro-4H-dibenzo[de,g]quinoline-2,9-diol] | inhibits sclerostin and restores normal Wnt activity
COc1cc2c(cc1OC)-c1c(OC)c(OC)c(C=O)c3c1C(C2)N(C)CC3 (centres unmarked) [Compound 4] | inhibits sclerostin and restores normal Wnt activity
